Source: paper PMC10612036

Protein sequences, listed by entry. Tags and fused reporters are not part of them. Lines headed by an entry give the natural chain unless they say otherwise; changes in a name come on top.
UniProt O15393: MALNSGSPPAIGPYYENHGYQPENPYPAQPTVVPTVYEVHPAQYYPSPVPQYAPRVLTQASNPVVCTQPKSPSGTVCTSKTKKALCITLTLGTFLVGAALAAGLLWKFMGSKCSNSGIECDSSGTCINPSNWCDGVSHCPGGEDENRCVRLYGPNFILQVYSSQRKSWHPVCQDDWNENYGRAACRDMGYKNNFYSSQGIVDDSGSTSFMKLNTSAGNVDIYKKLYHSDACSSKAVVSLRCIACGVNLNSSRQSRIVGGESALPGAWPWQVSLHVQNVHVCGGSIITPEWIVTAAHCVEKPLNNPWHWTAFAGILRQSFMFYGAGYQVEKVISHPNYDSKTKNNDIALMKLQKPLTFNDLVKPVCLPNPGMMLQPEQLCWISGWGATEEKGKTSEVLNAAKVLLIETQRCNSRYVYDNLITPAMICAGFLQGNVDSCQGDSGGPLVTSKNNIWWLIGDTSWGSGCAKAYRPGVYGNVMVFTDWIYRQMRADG
UniProt P00519: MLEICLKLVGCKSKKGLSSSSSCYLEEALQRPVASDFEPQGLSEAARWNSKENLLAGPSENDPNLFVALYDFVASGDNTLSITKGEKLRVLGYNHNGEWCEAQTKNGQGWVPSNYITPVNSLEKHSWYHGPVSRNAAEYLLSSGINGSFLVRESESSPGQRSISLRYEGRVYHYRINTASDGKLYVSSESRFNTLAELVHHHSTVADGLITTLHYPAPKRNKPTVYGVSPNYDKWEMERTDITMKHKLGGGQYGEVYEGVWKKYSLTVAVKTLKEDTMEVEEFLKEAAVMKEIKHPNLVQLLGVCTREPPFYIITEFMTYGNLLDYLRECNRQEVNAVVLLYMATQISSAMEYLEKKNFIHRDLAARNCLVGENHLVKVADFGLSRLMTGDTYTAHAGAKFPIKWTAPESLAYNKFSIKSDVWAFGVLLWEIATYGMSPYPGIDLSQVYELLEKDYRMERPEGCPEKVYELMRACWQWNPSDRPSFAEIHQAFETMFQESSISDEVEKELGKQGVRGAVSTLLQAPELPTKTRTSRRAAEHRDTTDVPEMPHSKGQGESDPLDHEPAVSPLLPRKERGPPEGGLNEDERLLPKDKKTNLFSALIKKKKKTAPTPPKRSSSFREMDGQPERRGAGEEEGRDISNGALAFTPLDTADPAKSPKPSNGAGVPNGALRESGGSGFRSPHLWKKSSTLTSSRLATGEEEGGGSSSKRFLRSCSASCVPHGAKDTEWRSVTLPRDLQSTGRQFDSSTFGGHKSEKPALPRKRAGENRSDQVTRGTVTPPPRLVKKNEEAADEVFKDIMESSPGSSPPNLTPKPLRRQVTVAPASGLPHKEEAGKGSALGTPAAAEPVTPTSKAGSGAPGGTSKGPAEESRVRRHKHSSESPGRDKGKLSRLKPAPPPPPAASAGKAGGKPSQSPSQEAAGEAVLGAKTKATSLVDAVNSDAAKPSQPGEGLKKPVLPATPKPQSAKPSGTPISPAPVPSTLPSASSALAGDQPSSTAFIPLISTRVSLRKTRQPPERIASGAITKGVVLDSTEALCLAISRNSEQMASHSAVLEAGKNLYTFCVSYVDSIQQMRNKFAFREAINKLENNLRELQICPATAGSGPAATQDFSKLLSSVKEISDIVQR

Biological target: TMPRSS2-Flag (wild type transmembrane protease serine 2) (UniProt O15393)
Assay: co-IP

Δ81Abl1 (constitutively active Abl1 lacking the first 81 aa) (from UniProt P00519) (enzyme)
binding: binds

These are yes or no findings as the source states them, for the method shown. Binding seen in cells or lysates may run through a third protein. A result given as binding can be weak or reduced; the word gives no strength.
